Experimental data from the supplement of paper PMC10849652.
The other results are listed elsewhere or left out.

Sequences of proteins named here, by UniProt entry; tags and fusion partners are left off. A change or cut given only in a name is not applied to a line headed by its entry.
UniProt P06454: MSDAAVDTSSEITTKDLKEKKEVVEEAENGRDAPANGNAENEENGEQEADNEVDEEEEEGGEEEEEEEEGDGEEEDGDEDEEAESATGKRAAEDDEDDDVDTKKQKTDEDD
UniProt Q9BVG9: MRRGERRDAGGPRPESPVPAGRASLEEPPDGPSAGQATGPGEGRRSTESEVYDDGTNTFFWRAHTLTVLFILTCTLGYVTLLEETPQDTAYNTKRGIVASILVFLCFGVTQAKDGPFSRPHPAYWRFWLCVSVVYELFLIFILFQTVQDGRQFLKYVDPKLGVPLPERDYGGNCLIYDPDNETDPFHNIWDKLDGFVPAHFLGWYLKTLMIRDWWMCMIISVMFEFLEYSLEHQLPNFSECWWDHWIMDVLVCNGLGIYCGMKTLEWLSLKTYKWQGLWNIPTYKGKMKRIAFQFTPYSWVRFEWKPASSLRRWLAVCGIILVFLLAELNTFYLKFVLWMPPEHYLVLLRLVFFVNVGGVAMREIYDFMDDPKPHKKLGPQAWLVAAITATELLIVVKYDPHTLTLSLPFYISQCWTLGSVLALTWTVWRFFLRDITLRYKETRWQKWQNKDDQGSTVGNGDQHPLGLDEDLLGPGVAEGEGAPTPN
UniProt Q9H7Z7: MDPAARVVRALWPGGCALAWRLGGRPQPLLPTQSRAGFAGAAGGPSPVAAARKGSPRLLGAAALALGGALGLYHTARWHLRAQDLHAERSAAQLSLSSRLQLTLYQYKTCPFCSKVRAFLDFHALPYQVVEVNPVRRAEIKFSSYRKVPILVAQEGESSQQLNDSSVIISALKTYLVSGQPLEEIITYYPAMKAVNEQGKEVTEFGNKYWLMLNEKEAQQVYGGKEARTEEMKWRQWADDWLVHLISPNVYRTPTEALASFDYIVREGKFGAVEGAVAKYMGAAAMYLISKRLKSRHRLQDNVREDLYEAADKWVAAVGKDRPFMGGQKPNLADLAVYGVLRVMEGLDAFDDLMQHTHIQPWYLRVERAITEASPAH
UniProt Q8NDX1: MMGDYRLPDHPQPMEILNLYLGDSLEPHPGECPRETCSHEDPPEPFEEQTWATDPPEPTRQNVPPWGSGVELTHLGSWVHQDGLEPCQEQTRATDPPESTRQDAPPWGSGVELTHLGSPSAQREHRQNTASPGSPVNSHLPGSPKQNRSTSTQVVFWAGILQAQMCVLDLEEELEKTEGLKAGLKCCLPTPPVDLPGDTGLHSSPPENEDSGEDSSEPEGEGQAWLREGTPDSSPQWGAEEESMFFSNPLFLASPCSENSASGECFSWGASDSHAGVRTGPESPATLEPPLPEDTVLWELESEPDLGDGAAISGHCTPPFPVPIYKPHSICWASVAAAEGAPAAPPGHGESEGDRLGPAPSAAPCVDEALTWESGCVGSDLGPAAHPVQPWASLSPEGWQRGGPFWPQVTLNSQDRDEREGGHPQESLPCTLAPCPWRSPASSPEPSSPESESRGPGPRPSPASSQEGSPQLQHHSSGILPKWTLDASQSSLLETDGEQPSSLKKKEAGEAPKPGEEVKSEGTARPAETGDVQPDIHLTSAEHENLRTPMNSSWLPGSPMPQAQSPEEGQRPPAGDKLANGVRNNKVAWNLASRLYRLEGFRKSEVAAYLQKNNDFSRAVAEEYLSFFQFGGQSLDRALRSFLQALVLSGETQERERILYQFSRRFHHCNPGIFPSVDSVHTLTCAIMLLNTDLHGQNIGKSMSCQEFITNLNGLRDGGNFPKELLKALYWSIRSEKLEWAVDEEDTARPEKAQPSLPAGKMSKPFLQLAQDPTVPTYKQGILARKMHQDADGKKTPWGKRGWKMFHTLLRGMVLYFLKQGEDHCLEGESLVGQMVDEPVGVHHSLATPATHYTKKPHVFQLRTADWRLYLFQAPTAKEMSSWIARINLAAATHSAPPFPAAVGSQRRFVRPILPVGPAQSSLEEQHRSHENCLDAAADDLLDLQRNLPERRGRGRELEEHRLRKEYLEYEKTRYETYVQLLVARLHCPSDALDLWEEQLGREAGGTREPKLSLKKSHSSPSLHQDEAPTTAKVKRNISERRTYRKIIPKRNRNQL
UniProt Q9Y3E5: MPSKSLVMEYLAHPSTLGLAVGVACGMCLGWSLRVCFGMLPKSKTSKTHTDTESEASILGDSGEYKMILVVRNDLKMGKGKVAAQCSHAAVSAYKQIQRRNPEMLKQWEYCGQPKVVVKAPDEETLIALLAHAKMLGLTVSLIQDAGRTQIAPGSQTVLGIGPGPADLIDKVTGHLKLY
UniProt Q9Y520: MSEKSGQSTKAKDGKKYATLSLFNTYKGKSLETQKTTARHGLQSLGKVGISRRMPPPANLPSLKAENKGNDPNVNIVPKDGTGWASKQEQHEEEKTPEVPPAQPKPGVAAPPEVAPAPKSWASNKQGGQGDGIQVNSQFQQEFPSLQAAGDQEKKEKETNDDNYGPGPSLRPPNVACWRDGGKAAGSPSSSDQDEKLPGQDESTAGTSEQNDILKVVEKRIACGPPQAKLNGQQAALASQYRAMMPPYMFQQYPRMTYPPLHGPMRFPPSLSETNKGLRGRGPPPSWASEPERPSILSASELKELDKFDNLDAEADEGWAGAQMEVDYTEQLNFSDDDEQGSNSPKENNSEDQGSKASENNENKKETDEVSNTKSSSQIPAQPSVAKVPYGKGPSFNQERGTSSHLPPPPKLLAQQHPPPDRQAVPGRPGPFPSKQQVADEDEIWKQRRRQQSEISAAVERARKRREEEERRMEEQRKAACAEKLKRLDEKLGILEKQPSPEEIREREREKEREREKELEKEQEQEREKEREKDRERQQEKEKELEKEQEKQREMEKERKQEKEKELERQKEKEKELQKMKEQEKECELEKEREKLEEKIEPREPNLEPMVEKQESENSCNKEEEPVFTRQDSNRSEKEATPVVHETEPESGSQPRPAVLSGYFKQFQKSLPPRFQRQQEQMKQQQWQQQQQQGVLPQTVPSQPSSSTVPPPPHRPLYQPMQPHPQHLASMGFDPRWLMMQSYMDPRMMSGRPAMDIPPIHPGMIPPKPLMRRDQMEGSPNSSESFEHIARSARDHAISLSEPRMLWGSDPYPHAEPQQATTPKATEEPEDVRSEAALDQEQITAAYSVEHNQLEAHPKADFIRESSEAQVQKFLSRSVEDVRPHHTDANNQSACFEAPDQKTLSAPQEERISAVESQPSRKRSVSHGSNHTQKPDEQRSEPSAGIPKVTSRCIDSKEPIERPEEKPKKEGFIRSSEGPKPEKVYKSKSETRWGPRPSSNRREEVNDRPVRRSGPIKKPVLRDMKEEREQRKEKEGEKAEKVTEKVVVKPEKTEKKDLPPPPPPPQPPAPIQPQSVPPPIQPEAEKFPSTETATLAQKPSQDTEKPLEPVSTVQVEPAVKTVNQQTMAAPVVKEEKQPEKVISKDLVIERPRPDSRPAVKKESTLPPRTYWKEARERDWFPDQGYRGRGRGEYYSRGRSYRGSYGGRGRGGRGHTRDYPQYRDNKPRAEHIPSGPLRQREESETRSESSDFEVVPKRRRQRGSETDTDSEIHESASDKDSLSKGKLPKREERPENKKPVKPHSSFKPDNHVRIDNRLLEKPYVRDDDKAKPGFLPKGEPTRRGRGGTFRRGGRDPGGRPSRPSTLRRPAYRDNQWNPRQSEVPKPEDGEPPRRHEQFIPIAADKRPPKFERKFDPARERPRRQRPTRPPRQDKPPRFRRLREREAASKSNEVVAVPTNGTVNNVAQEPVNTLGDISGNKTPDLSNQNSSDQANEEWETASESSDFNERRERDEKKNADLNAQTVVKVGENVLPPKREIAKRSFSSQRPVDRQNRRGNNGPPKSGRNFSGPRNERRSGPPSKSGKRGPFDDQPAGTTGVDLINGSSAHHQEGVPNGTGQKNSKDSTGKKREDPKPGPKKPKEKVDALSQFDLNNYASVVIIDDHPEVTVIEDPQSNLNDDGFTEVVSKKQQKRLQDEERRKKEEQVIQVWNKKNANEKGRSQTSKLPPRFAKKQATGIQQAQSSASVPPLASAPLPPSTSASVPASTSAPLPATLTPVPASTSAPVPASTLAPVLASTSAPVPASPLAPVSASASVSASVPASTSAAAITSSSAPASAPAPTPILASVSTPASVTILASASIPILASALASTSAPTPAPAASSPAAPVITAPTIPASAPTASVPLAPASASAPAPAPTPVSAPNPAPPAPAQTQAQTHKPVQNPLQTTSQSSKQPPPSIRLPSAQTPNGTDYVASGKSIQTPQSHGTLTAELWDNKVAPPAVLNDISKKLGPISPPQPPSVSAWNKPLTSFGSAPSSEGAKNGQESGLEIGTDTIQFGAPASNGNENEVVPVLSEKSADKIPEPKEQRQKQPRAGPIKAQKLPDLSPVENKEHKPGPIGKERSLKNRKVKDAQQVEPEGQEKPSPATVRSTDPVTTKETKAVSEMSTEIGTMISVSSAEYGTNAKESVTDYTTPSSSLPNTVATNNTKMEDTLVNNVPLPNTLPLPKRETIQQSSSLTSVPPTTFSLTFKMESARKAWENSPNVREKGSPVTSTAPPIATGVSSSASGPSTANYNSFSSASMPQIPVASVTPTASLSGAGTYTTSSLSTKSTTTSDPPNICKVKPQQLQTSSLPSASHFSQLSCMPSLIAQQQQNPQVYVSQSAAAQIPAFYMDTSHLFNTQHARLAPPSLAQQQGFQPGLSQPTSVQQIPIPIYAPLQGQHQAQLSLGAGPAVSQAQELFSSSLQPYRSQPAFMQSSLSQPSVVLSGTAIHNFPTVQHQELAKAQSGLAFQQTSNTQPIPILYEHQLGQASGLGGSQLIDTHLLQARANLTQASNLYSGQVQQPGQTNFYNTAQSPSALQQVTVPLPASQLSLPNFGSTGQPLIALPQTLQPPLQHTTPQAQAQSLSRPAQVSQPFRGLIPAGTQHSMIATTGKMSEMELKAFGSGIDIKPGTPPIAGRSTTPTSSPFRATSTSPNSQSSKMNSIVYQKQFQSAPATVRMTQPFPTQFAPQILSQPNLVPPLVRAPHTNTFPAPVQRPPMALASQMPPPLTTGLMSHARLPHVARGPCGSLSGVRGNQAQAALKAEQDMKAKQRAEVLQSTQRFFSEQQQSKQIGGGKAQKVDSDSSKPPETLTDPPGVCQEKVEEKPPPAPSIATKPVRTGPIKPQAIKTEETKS
UniProt P18433: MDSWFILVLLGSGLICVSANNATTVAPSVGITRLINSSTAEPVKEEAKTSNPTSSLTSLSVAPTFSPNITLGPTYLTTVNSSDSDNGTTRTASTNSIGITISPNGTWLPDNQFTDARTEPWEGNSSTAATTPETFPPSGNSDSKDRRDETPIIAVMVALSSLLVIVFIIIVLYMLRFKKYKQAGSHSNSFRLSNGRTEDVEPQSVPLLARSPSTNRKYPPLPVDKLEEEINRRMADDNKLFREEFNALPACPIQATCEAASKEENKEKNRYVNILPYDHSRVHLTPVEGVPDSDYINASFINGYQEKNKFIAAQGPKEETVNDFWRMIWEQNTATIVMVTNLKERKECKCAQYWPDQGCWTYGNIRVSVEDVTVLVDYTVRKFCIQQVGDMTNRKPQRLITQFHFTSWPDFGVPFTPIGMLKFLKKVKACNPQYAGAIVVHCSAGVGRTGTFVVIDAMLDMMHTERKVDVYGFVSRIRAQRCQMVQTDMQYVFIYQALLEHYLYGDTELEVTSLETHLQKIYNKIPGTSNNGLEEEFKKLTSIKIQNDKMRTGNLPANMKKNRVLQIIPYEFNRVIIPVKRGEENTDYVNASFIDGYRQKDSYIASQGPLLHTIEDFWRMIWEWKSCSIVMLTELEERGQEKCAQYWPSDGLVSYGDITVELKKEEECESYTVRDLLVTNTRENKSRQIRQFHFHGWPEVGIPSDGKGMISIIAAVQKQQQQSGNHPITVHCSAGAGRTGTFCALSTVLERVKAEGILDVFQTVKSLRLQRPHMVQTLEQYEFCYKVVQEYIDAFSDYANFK
UniProt P23219, whole entry, looked up: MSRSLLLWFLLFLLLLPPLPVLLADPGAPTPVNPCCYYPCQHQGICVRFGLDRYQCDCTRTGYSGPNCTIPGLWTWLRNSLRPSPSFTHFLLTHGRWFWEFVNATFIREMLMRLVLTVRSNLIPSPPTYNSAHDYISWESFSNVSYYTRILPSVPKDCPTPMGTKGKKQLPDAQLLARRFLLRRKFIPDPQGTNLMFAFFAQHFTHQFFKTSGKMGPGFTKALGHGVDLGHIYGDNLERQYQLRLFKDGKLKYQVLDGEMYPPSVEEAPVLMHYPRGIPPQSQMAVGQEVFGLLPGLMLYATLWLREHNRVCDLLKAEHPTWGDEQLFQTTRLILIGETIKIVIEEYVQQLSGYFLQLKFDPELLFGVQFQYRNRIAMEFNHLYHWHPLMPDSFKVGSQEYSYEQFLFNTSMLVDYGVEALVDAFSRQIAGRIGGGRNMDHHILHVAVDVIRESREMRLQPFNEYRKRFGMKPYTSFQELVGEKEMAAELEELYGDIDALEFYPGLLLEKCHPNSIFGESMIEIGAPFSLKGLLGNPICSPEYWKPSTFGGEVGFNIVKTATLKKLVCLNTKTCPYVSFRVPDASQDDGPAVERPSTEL

Assays:
Assay in all cases: log2 fold change, soluble protein after heating vs DMSO (PISA); higher = thermal stabilisation; K562 lysate, 10 uM; active = over 0.2 and 3.5 SD of the protein, either way, in both replicates (recomputed)
alvocidib = compound: CN1CC[C@H](c2c(O)cc(O)c3c(=O)cc(-c4ccccc4Cl)oc23)[C@H](O)C1 [alvocidib]
Summary of the method: (§1)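 The values are log-two fold changes in thermal stability compared with solvent controls and come from duplicates. They were obtained by TMTpro 16plex LC-MS/MS, with channel sums equalised, on the supernatant after 21,000xg for 90 min. That supernatant came from crude K562 extract at 1 mg/mL protein treated with 10 μM compound for 30 min, heated for 3 min across 48°C-58°C, pooled and brought to 0.5% NP-40 at 4°C.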

Tubastatin A = compound: CN1CCc2c(c3ccccc3n2Cc2ccc(C(=O)NO)cc2)C1 [Tubastatin A]
Summary of the method: as §1

[1] = compound: CNC(=O)C1=CC=CC=C1NC2=NC(=NC=C2Cl)NC3=C(C=C(C=C3)N4CCOCC4)OC
Summary of the method: as §1

defactinib = compound: CNC(=O)c1ccc(Nc2ncc(C(F)(F)F)c(NCc3nccnc3N(C)S(C)(=O)=O)n2)cc1 [defactinib]
Summary of the method: as §1

[2] = compound: CNc1nc(-c2ccc3c(N)n[nH]c3c2)cc(N2C[C@@H](C(=O)NC3CCCCC3)CC[C@H]2C)n1
Summary of the method: as §1

encorafenib = compound: COC(=O)N[C@@H](C)CNc1nccc(-c2cn(C(C)C)nc2-c2cc(Cl)cc(NS(C)(=O)=O)c2F)n1 [encorafenib]
Summary of the method: as §1

[3] = compound: COC(=O)[C@H](CCSC)NC(=O)C1=C(C=C(C=C1)NC[C@H](CS)N)C2=CC=CC=C2
Summary of the method: as §1

alisertib = compound: COc1cc(Nc2ncc3c(n2)-c2ccc(Cl)cc2C(c2c(F)cccc2OC)=NC3)ccc1C(=O)O [alisertib]
Summary of the method: as §1

[4] = compound: COc1cc2nc(-c3cc(F)ccc3O)nc(N[C@@H]3CNC[C@H]3C(C)(C)O)c2cc1OC
Summary of the method: as §1

gefitinib = compound: COc1cc2ncnc(Nc3ccc(F)c(Cl)c3)c2cc1OCCCN1CCOCC1 [gefitinib]
Summary of the method: as §1

lapatinib = compound: CS(=O)(=O)CCNCc1ccc(-c2ccc3ncnc(Nc4ccc(OCc5cccc(F)c5)c(Cl)c4)c3c2)o1 [lapatinib]
Summary of the method: as §1

pictilisib = compound: CS(=O)(=O)N1CCN(Cc2cc3nc(-c4cccc5[nH]ncc45)nc(N4CCOCC4)c3s2)CC1 [pictilisib]
Summary of the method: as §1

crizotinib = compound: C[C@@H](Oc1cc(-c2cnn(C3CCNCC3)c2)cnc1N)c1c(Cl)ccc(F)c1Cl [crizotinib]
Summary of the method: as §1

[5] = compound: C[C@H](C1=CC=C(C=C1)C(=O)NC2=C3C=CNC3=NC=C2)N
Summary of the method: as §1

duvelisib = compound: C[C@H](Nc1ncnc2nc[nH]c12)c1cc2cccc(Cl)c2c(=O)n1-c1ccccc1 [duvelisib]
Summary of the method: as §1

gandotinib = compound: Cc1cc(Nc2cc(CN3CCOCC3)c3nc(C)c(Cc4ccc(Cl)cc4F)n3n2)n[nH]1 [gandotinib]
Summary of the method: as §1

tozasertib = compound: Cc1cc(Nc2cc(N3CCN(C)CC3)nc(Sc3ccc(NC(=O)C4CC4)cc3)n2)n[nH]1 [tozasertib]
Summary of the method: as §1

doramapimod = compound: Cc1ccc(-n2nc(C(C)(C)C)cc2NC(=O)Nc2ccc(OCCN3CCOCC3)c3ccccc23)cc1 [doramapimod]
Summary of the method: as §1

bafetinib = compound: Cc1ccc(NC(=O)c2ccc(CN3CC[C@H](N(C)C)C3)c(C(F)(F)F)c2)cc1Nc1nccc(-c2cncnc2)n1 [bafetinib]
Summary of the method: as §1

[6] = compound: Cc1cccc(CC(=O)N2CCc3c2ccc(-c2cn(C)c4ncnc(N)c24)c3F)n1
Summary of the method: as §1

| Target | log2 fold change (alvocidib) | log2 fold change (Tubastatin A) | log2 fold change [1] | log2 fold change (defactinib) | log2 fold change [2] | log2 fold change (encorafenib) | log2 fold change [3] | log2 fold change (alisertib) | log2 fold change [4] | log2 fold change (gefitinib) | log2 fold change (lapatinib) | log2 fold change (pictilisib) | log2 fold change (crizotinib) | log2 fold change [5] | log2 fold change (duvelisib) | log2 fold change (gandotinib) | log2 fold change (tozasertib) | log2 fold change (doramapimod) | log2 fold change (bafetinib) | log2 fold change [6] |
| --- | --- | --- | --- | --- | --- | --- | --- | --- | --- | --- | --- | --- | --- | --- | --- | --- | --- | --- | --- | --- |
| PUS7L (UniProt Q9H0K6) | inactive: -0.027 | inactive: 0.005 | inactive: 0.031 | inactive: -0.019 | inactive: 0.021 | inactive: 0.003 | inactive: 0 | inactive: -0.015 | inactive: -0.001 | inactive: 0.02 | inactive: -0.019 | inactive: 0.018 | inactive: 0.023 | inactive: -0.057 | inactive: -0.006 | inactive: 0.028 | inactive: -0.017 | inactive: -0.002 | inactive: -0.047 | inactive: 0.061 |
| PTMA (UniProt P06454) | inactive: 0.194 | inactive: 0.09 | inactive: -0.104 | inactive: 0.049 | inactive: 0.007 | inactive: -0.003 | inactive: -0.038 | inactive: 0.01 | inactive: 0.042 | inactive: 0.014 | inactive: -0.059 | inactive: -0.014 | inactive: 0.08 | active: 0.505 | inactive: 0.009 | inactive: -0.277 | inactive: 0.012 | inactive: -0.031 | inactive: 0.058 | active: -0.375 |
| PUSL1 (UniProt Q8N0Z8) | inactive: 0.007 | inactive: -0.038 | inactive: -0.009 | inactive: -0.109 | inactive: 0.08 | inactive: 0.188 | inactive: -0.301 | inactive: 0.039 | inactive: -0.029 | inactive: -0.045 | inactive: -0.03 | inactive: 0.008 | inactive: 0.009 | inactive: 0.005 | inactive: 0.077 | inactive: -0.007 | inactive: 0.052 | inactive: 0.048 | inactive: -0.383 | inactive: -0.005 |
| PTDSS2 (UniProt Q9BVG9) | inactive: -0.184 | inactive: 0.003 | inactive: 0.013 | inactive: 0.032 | inactive: -0.044 | inactive: 0.152 | inactive: 0.067 | inactive: 0.021 | inactive: -0.027 | inactive: 0.019 | inactive: -0.045 | inactive: -0.102 | inactive: 0.015 | inactive: -0.248 | inactive: -0.008 | inactive: 0.01 | inactive: 0.001 | inactive: -0.048 | inactive: 0.073 | inactive: 0.087 |
| PTGES2 (UniProt Q9H7Z7) | inactive: 0.015 | inactive: -0.169 | inactive: 0.122 | inactive: -0.075 | inactive: 0.322 | inactive: -0.127 | inactive: 0.098 | inactive: -0.026 | inactive: -0.248 | inactive: 0.245 | active: 0.637 | inactive: 0.153 | inactive: -0.052 | inactive: -0.013 | inactive: 0.029 | inactive: 0.236 | inactive: 0.329 | inactive: 0.341 | inactive: 0.176 | inactive: 0.009 |
| PSD4 (UniProt Q8NDX1) | inactive: 0.01 | inactive: -0.093 | inactive: 0.003 | inactive: 0.057 | inactive: -0.016 | inactive: 0.024 | inactive: 0.006 | inactive: 0.011 | inactive: 0.012 | inactive: -0.002 | inactive: -0.02 | inactive: -0.026 | inactive: -0.098 | inactive: 0.013 | inactive: 0.018 | inactive: -0.075 | inactive: -0.009 | inactive: -0.03 | inactive: -0.109 | inactive: -0.003 |
| PSMA1 isoform 2 (UniProt P25786) | inactive: 0.013 | inactive: 0.036 | inactive: 0.002 | inactive: -0.023 | inactive: 0.031 | inactive: -0.017 | inactive: -0.027 | inactive: -0.004 | inactive: 0.023 | inactive: -0.017 | inactive: -0.007 | inactive: -0.001 | inactive: 0.037 | inactive: 0.009 | inactive: 0.016 | inactive: 0.02 | inactive: -0.005 | inactive: -0.016 | inactive: 0.022 | inactive: -0.017 |
| PTRH2 (UniProt Q9Y3E5) | inactive: 0.109 | inactive: 0.065 | inactive: 0.053 | inactive: 0.049 | inactive: 0.072 | inactive: -0.001 | inactive: -0.029 | inactive: -0.087 | inactive: 0.007 | inactive: -0.051 | inactive: 0.042 | inactive: -0.019 | inactive: -0.081 | inactive: 0.032 | inactive: 0.018 | inactive: -0.04 | inactive: -0.008 | inactive: 0.028 | inactive: 0.031 | inactive: -0.07 |
| PSMB6 (UniProt P28072) | inactive: -0.025 | inactive: 0.017 | inactive: 0.01 | inactive: -0.054 | inactive: -0.055 | inactive: 0.003 | inactive: -0.009 | inactive: -0.028 | inactive: -0.011 | inactive: 0.027 | inactive: 0.014 | inactive: -0.008 | inactive: 0.03 | inactive: -0.074 | inactive: 0.053 | inactive: 0.008 | inactive: -0.019 | inactive: 0.018 | inactive: 0.02 | inactive: 0.01 |
| PTPN1 (UniProt P18031) | inactive: -0.002 | inactive: -0.048 | inactive: 0.018 | inactive: 0.015 | inactive: -0.033 | inactive: -0.003 | inactive: 0.014 | inactive: 0.005 | inactive: 0.047 | inactive: 0.014 | inactive: -0.022 | inactive: -0.022 | inactive: -0.031 | inactive: -0.042 | inactive: -0.007 | inactive: -0.055 | inactive: 0.069 | inactive: 0.059 | inactive: -0.029 | inactive: 0.062 |
| PSMC1 (UniProt P62191) | inactive: -0.01 | inactive: -0.028 | inactive: 0.013 | inactive: -0.008 | inactive: -0.026 | inactive: -0.01 | inactive: 0.087 | inactive: 0.018 | inactive: -0.008 | inactive: -0.008 | inactive: -0.015 | inactive: 0.012 | inactive: -0.023 | inactive: 0.014 | inactive: -0.015 | inactive: -0.043 | inactive: 0.001 | inactive: 0.021 | inactive: -0.002 | inactive: 0.011 |
| PRRC2C isoform 7 (UniProt Q9Y520) | inactive: -0.036 | inactive: 0.004 | inactive: -0.017 | inactive: 0.001 | inactive: 0.027 | inactive: 0.04 | inactive: -0.072 | inactive: -0.002 | inactive: 0.019 | inactive: -0.011 | inactive: -0.012 | inactive: -0.024 | inactive: 0.023 | inactive: -0.004 | inactive: 0.005 | inactive: -0.005 | inactive: -0.014 | inactive: -0.024 | inactive: -0.024 | inactive: -0.011 |
| PTPRA (UniProt P18433) | inactive: 0.071 | inactive: 0.029 | inactive: -0.013 | inactive: 0.034 | inactive: 0.003 | inactive: 0.025 | inactive: -0.023 | inactive: 0.05 | inactive: 0.019 | inactive: 0.029 | inactive: -0.029 | inactive: -0.041 | inactive: 0.003 | inactive: 0.014 | inactive: 0.046 | inactive: -0.029 | inactive: -0.035 | inactive: 0.079 | inactive: -0.054 | inactive: -0.011 |
| PTGS1 isoform 6 (UniProt P23219) | inactive: -0.154 | inactive: 0.023 | inactive: -0.052 | inactive: -0.119 | inactive: -0.057 | inactive: -0.008 | inactive: 0.027 | inactive: -0.051 | inactive: 0.021 | inactive: -0.011 | inactive: 0.004 | inactive: -0.068 | inactive: 0.007 | active: -0.236 | inactive: -0.001 | inactive: 0.109 | inactive: 0.029 | inactive: 0.036 | inactive: -0.079 | inactive: 0.093 |
| PSPH (UniProt P78330) | inactive: -0.038 | inactive: 0.076 | inactive: -0.006 | inactive: -0.021 | inactive: 0.058 | inactive: -0.031 | inactive: -0.015 | inactive: -0.031 | inactive: 0.015 | inactive: 0.015 | inactive: -0.015 | inactive: -0.076 | inactive: 0.023 | inactive: -0.09 | inactive: 0.02 | inactive: 0.058 | inactive: -0.006 | inactive: 0.007 | inactive: -0.036 | inactive: 0.027 |
| PUS1 (UniProt Q9Y606) | inactive: -0.002 | inactive: -0.049 | inactive: -0.008 | inactive: 0.002 | inactive: -0.029 | inactive: 0 | inactive: 0.086 | inactive: 0.005 | inactive: 0.014 | inactive: -0.019 | inactive: -0.042 | inactive: -0.058 | inactive: -0.062 | inactive: -0.006 | inactive: 0.008 | inactive: -0.033 | inactive: 0.012 | inactive: 0.006 | inactive: -0.047 | inactive: 0.027 |

Shown bar-delimited: entries from further up.
Target | log2 fold change (alvocidib) | log2 fold change (Tubastatin A) | log2 fold change [1] | log2 fold change (defactinib) | log2 fold change [2] | log2 fold change (encorafenib) | log2 fold change [3] | log2 fold change (alisertib) | log2 fold change [4] | log2 fold change (gefitinib) | log2 fold change (lapatinib) | log2 fold change (pictilisib) | log2 fold change (crizotinib) | log2 fold change [5] | log2 fold change (duvelisib) | log2 fold change (gandotinib) | log2 fold change (tozasertib) | log2 fold change (doramapimod) | log2 fold change (bafetinib) | log2 fold change [6]
PTMA (UniProt P06454) | inactive: 0.194 | inactive: 0.09 | inactive: -0.104 | inactive: 0.049 | inactive: 0.007 | inactive: -0.003 | inactive: -0.038 | inactive: 0.01 | inactive: 0.042 | inactive: 0.014 | inactive: -0.059 | inactive: -0.014 | inactive: 0.08 | active: 0.505 | inactive: 0.009 | inactive: -0.277 | inactive: 0.012 | inactive: -0.031 | inactive: 0.058 | active: -0.375
PSMA1 isoform 2 (UniProt P25786) | inactive: 0.013 | inactive: 0.036 | inactive: 0.002 | inactive: -0.023 | inactive: 0.031 | inactive: -0.017 | inactive: -0.027 | inactive: -0.004 | inactive: 0.023 | inactive: -0.017 | inactive: -0.007 | inactive: -0.001 | inactive: 0.037 | inactive: 0.009 | inactive: 0.016 | inactive: 0.02 | inactive: -0.005 | inactive: -0.016 | inactive: 0.022 | inactive: -0.017
PSMC1 (UniProt P62191) | inactive: -0.01 | inactive: -0.028 | inactive: 0.013 | inactive: -0.008 | inactive: -0.026 | inactive: -0.01 | inactive: 0.087 | inactive: 0.018 | inactive: -0.008 | inactive: -0.008 | inactive: -0.015 | inactive: 0.012 | inactive: -0.023 | inactive: 0.014 | inactive: -0.015 | inactive: -0.043 | inactive: 0.001 | inactive: 0.021 | inactive: -0.002 | inactive: 0.011
PSPH (UniProt P78330) | inactive: -0.038 | inactive: 0.076 | inactive: -0.006 | inactive: -0.021 | inactive: 0.058 | inactive: -0.031 | inactive: -0.015 | inactive: -0.031 | inactive: 0.015 | inactive: 0.015 | inactive: -0.015 | inactive: -0.076 | inactive: 0.023 | inactive: -0.09 | inactive: 0.02 | inactive: 0.058 | inactive: -0.006 | inactive: 0.007 | inactive: -0.036 | inactive: 0.027
